# Laboratory results reported in article PMC5102403.
# Chains of the proteins cited; added tags and fusions are not shown.
# UniProt Q61457: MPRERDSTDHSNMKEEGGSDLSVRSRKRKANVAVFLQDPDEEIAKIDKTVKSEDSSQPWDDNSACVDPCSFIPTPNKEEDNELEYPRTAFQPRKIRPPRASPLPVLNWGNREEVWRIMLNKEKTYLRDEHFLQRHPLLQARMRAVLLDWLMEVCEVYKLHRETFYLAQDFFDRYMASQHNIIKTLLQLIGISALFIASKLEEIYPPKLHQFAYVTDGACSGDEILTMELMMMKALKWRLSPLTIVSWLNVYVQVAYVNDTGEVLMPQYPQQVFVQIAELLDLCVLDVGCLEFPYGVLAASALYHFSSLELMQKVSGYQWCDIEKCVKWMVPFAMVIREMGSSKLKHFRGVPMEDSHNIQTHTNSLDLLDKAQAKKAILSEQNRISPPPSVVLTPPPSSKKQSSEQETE
# No constants are given. Whether binding was seen depends on the method and setting. Binding seen in cells or lysates may run through a third protein. Here binding means that the protein was enriched with, or labelled near, the bait; the list need not be complete. No binding means not detected with the bait.
# Biological target: tagged (Flag-HA) cyclin E1 of knock-in mice, end of the tag not told for the experiment or an about 1:1 mixture of the N- and C-terminally tagged forms (mouse) (UniProt Q61457)
# Test: affinity purification with mass spectrometry; sequential immunoaffinity purification (anti-Flag M2 agarose, Flag peptide elution, then anti-HA 12CA5 beads) from embryonic brains, adult brains, spleens, thymuses and testes, about 1:1 mixture of organs of N- and C-tagged cyclin E1 knock-in mice; LC-MS/MS, 6-10 runs per organ; mock purifications from wild-type mice subtracted
row,Binder,binding
1,"Mcm3, mouse (protein, UniProt P25206 1-812) MAGTVVLDDVELREAQRDYLDFLDDEEDQGIYQNKVRELISDNQYRLIVSVNDLRRKNEKRANRLLNNAFEELVAFQRALKDFVASIDATYAKQYEEFYIGLEGSFGSKHVSPRTLTSCFLSCVVCVEGIVTKCSLVRPKVVRSVHYCPATKKTIERRYSDLTTLVAFPSSSVYPTKDEENNPLETEYGLSVYKDHQTITIQEMPEKAPAGQLPRSVDVILDDDLVDKVKPGDRIQVVGTYRCLPGKKGCYTSGTFRTVLIACNVKQMSKDIQPAFSADDIAKIKKFSKTRSKDVFEQLARSLAPSIHGHDYVKKAILCLLLGGVERELENGSHIRGDINILLIGDPSVAKSQLLRYVLCTAPRAIPTTGRGSSGVGLTAAVTTDQETGERRLEAGAMVLADRGVVCIDEFDKMSDMDRTAIHEVMEQGRVTIAKAGIHARLNARCSVLAAANPVYGRYDQYKTPMENIGLQDSLLSRFDLLFIMLDQMDPEQDREISDHVLRMHQYRAPGEQDGDALPLGSSVDILATDDPDFTQDDQQDTRIYEKHDSLLHGTKKKKEKMVSAAFMKKYIHVAKIIKPTLTQESAAYIAEEYSRLRSQDSMSSDTARTSPVTARTLETLIRLATAHAKARMSKTVDLQDAEEAVELVQYAYFKKVLEKEKKRKKASEDESDLEDEEEKSQEDTEQKRKRRKTHAKDGESYDPYDFSEAETQMPQVHTPKTDDSQEKTDDSQETQDSQKVELSEPRLKAFKAALLEVFQEAHEQSVGMLHLTESINRNREEPFSSEEIQACLSRMQDDNQVMVSEGIVFLI",binds
2,"cyclin B3, mouse (protein, UniProt Q810T2 1-1396) MPPPLLPKRSKLETEKAQSNKITPREEQQSEKIGKSNHAASSSSSSTQGAVKRRSVFEDVTNASHSQCVQSKEDNIELKSHVSKRTKKGVGEVTQKKIKSSKMGHVTSLSNMEKEFILDIPNKPKTLTTEEPSVFQKTLVLNEEPATKETCLMRKTLKSCAFHQETLLMEKPLTLLVETEDYNEFDTELMTSKKKDKPEDPTIIEEMTDLKKSVIRKVTLTSSPLWLKNKHVVQEEKPVIQEKSSFKRISLVSNVVTTKEKPPVKKPHFRKKKPTTEMKSLLQEPSLEEKYNTQEDASILKKPQVLQENTNNKDATLTEPVTFKGKHSANEATHTKKPSSSKNNPDPQGKGTNLRPLRVHPVTYENEPMSSKKSTTKKKDSHFHGPSVLPDKHSPQMEVSTVKKSLALPNPTTEEKMLHFPVATVLEKQHNMGEAPCLKKPSPLRKQQQLPKRRRFFSNSAVQETVIRKPLFFKMSTTEKDPPSQWPSALPKKHISPGELSKQKKQHVSPKHNMEEDSQCWLDSAFKKQLSREEPASTHTPLKLEMQQAITKETGFHLRNPLVLPTVTSEAKSLTKEPPSFREQNTSLLKRKSTTHTITLQQAQSEWQEMTDEDRNLFSIKPGSHRKEPIPEFLQNPLPPNENCLISQKLSHSMPFASQKTTSQERAHRKESVASNDDKNFFSQDLFSPFSSADEDTLKFHKSLDFQEQVDRKNDSHKKMFDSQDSVSEEESFLRKLFCKDRCSSTEELSQERTVALEQEFLLIKILNENTSSDVDEPLSHQSPHIQNHSDTTKEALEASEALEAPEALETLEALVASEDLEEPLNILEELSTENMVALMKMLVTEDESTKDSFSGNYTAAREAHAEKSLSLEETSINEAATLKESLSSQEKHRAELVTVLKELLVLMKNPSLKRVALAFQENPSNNVETLLREVLALVENSTADESTLQEKPSTKTDVTPKELLALEENSSNKKANPMDSLSFDHKPDTEMGEIARMVLTDEEYNIDTLYERVLALSQGLIAADQLSFTDLQNFEETKIVDEEEFFKSFLVFENKNSPNMSSNAFESRTDNSSAIMPSSKAFNPVENSNPYVSSSKSFKSTLGAKETEITIQDDSDSLERIEKEGQDPLLNTIYAKDVFNYLKEREEKFLVQKYMDGQMELTSDMRAILVDWLVEIQGSFQMTHETLYLAVKIMDLYLMKAQCKKNHLQLLGSTTYMIAAKFEESYPPSLSEFLFICEDMYEKSDMVSLESSILQTLNFDINIPTAYNFLRRYASCIHASMKTLTLSRFICEMTLQEYEYIEERPSKLAAASFILALYMRNLSNCVPTLEYFTGYKMAELHILVRKLNHLLNFRSHSILKNVFEKYSEETYFEVAKIPPLSKQDLENLLNCALFH",binds
3,"Cdc7, mouse (enzyme, UniProt Q9Z0H0 1-564) MEEPMAFSSLRGSDRCPADDSLKKYEQSVKLSGIKRDIEELCEAVPQLVNVFKIKDKIGEGTFSSVYLATAQLQEGHEEKIALKHLIPTSHPMRIAAELQCLTVAGGQDNVMGLKYCFRKNDHVVIAMPYLEHESFLDILNSLSFQEVREYMYNLFVALKRIHQFGIVHRDVKPSNFLYNRRLKKYALVDFGLAQGTRDTKIELLKFVQSEAQQEDCSRNKYHGVVGHKGLLSRPAPKTVDQQCTPKTSVKRSYTQVHIKQGKDGKERSVGLSVQRSVFGERNFNIHSSISHESPAEKLIKQSKTVDIISRKLATKKTAISTKAMNSVMRETARSCPAVLTCDCYGSDRVCSVCLSRRQQVAPRAGTPGFRAPEVLTKCPDQTTAIDMWSAGVIFLSLLSGRYPFYKASDDLTALAQIMTIRGSRETIQAAKAFGKSVLCSKEVPAQDLRALCERLRGLDSTTPRSASGPPGNASYDPAASKNTDHKASRVQAAQAQHSEDSLYKRDNDGYWSHPKDCTSNSEGWDSVPDEAYDLLDKLLDLNPASRITAEAALLHAFFKDMCS",binds

# Now from value to binder:
row,binding,Binder
1,no binding,"Dbf4, mouse (protein, UniProt Q9QZ41 1-663) MNLETMRIHSKAPLPGGIQDRNEKNRPSLKSLKADNRLEKSKYKPLWGKIFYLDLPSITICEKLQKDIKELGGRVEEFLSKDISYFVSNKKEAKYAQTLGRVSPVPSPESAYTAETTSPHPSHDGSSFKSQDRVCLSRGKLLAEKAVKDHDFIPANSILSNALSWGVKILHIDDIRYYIEQKKKALSALKKSSASGKDAGKKAGPGIQKTRTGRLKKPFLKVEDVNRCYRPFYLQLPSLPCINYFLQKPCSPFDIEKSSSVQKQAQPKLRINMDGDKCGTPVQLQLKEKRKKGYCECCLQKYEDLETHLLSEKHRNFAQSNQYQVVDDIVSQLVFDFVEYGRDTPQKKRIRYSVGSLSSVSANVLKNTAPKEKPLLEPNFQKDVGESSGHLLKPNSQYEETQKPEEKHGFASEPTTYSSAGLKGCDRKPVSMFNASEPDPEQEYAQLPLRDSTPEHQVTEGRNDGEQRVDPAPGVSQSCGQVSHLSTESNLPQPQLAADITQLSAKDLQEKGFHVVIGHASDLVALNTSKEQLTMKARTPPCSPQEPHECDTENMENLPCGKIQRKVRMLLGQQKANAEPSAELDKKRTEYLPAHEDRTCGSPVQSLLDLFQTSEEKSEFLGFTGYTENSGICDVLDIWEEENSSTLLSTFFSSPSTSAFVGF"
2,binds,"p130, mouse (protein, UniProt Q64700 1-1135) MASGGNQSPPPPPAAAASSEEEEEDGDAADRAQPAGSPSHQIQQRFEELCSRLNMDEAARAEAWSSYRSMSESYTLEGNDLHWLACALYVACRKSVPTVSKGTAEGNYVSLTRILRCSEQSLIEFFNKMKKWEDMANLPPHFRERTERLERNFTVSAVIFKKYEPIFQDIFKYPQEEQPRQQRGRKQRRQPCTTSEIFHFCWVLFIYAKGNFPMISDDLVNSYHLLLCALDLVYGNALQCSNRKELVNPNFKGLSEDCHPKDSKASSDPPCVIEKLCSLHDGLVLEAKGIKEHFWKPYIRKLFEKKLLKGKEENLTGFLEPGNFGESFKAVNKAYEEYVLAAGNLDERVFLGEDAEEEVGTLSRCLSAASGTESAERTQMRDILQQHLDKSKALRVCTPLTGVRYVQENSPCVTPVSTAAHSLSRLHTMLSGLRNAPSEKLERILRSCSRDPTQAIADRLKEMYEIYSQHFQPDENFSNCAKEIANKHFRFAEMLYYKVLESVIEQEQKRLGDMDLSGVLEHDAFHRSLLACCLEVVAFSHKPPGNFPFIAEIFDVPHYHFYKVIEVFIRAEDGLCREVVKHLNQIEEQILDHLAWKTKSPLWDRIRDNENRVPTCEEVMPPQNLERTDEIYIAGSPLTPRRVGEVRADAGGLGRSITSPTTLYDRYSSPTVSTTRRRLFENDSPSEGSTSGRIPPQPLVNAVPVQNVPGETVSVTPVPGQTLVTMATATVTANNGQTVTIPVQGIANENGGITFFPVQVNVGGQAQAVAGSIQPLSAQALAGSLSSQQVTGTTLQVPGPVAIQQISPGGQQQNPGQPLTSSSIRPRKTSSLALFFRKVYYLAGVRLRDLCIKLDISDELRKKIWTCFEFSIIQCTELMMDRHLDQLLMCAIYVMAKVTKEDRSFQNIMRCYRTQPQARSQVYRSVLIKGKRRNSGSSESRSHQNSPTELNTDRASRDSSPVMRSNSTLPVPQPSSAPPTPTRLTGASSDVEEEERGDLIQFYNNIYRKQIQAFAMKYSQANAQTDTPPLSPYPFVRTGSPRRVQLSQSHPIYISPHNNEAMPSPREKIFYYFSNSPSKRLREINSMIRTGETPTKKRGILLDDGSESPAKRICPENHSALLRRLQDVANDRGSQ"
3,binds,"p57^Kip2, mouse (protein, UniProt P49919 1-348) MGMSDVYLRSRTAMERLASSDTFPVIARSSACRSLFGPVDHEELGRELRMRLAELNAEDQNRWDFNFQQDVPLRGPGRLQWMEVDSESVPAFYRETVQVGRCRLQLGPRPPPVAVAVIPRSGPPAGEAPDGLEEAPEQPPSAPASAVVAEPTPPATPAPASDLTSDPIPEVTLVATSDPTPDPIPDANPDVATRDGEEQVPEQVSEQGEESGAEPGDELGTEPVSEQGEEQGAEPVEEKDEEPEEEQGAEPVEEQGAEPVEEQNGEPVEEQDENQEQRGQELKDQPLSGIPGRPAPGTAAANANDFFAKRKRTAQENKASNDVPPGCPSPNVAPGVGAVEQTPRKRLR"
4,binds,"Mcm4, mouse (protein, UniProt P49717 1-862) MSSPASTPSRRSSRRGRVTPTQSLRSEESRSSPNRRRRGEDSSTGELLPMPTSPGADLQSPPAQNALFSSPPQMHSLAIPLDFDVSSPLTYGTPSSRVEGTPRSGVRGTPVRQRPDLGSARKGLQVDLQSDGAAAEDIVPSEQSLGQKLVIWGTDVNVATCKENFQRFLQCFTDPLAKEEENVGIDITQPLYMQQLGEINITGEPFLNVNCEHIKSFSKNLYRQLISYPQEVIPTFDMAVNEIFFDRYPDSILEHQIQVRPFNALKTKSMRNLNPEDIDQLITISGMVIRTSQLIPEMQEAFFQCQVCAHTTRVEIDRGRIAEPCSCVHCHTTHSMALIHNRSFFSDKQMIKLQESPEDMPAGQTPHTIVLFAHNDLVDKVQPGDRVNVTGIYRAVPIRVNPRVSNVKSVYKTHIDVIHYRKTDAKRLHGLDEEAEQKLFSEKRVKLLKELSRKPDIYERLASALAPSIYEHEDIKKGILLQLFGGTRKDFSHTGRGKFRAEINILLCGDPGTSKSQLLQYVYNLVPRGQYTSGKGSSAVGLTAYVMKDPETRQLVLQTGALVLSDNGICCIDEFDKMNESTRSVLHEVMEQQTLSIAKAGIICQLNARTSVLAAANPIESQWNPKKTTIENIQLPHTLLSRFDLIFLMLDPQDEAYDRRLAHHLVSLYYQSEEQVEEEFLDMAVLKDYIAYAHSTIMPRLSEEASQALIEAYVNMRKIGSSRGMVSAYPRQLESLIRLAEAHAKVRFSNKVEAIDVEEAKRLHREALKQSATDPRTGIVDISILTTGMSATSRKRKEELAEALRKLILSKGKTPALKYQQLFEDIRGQSDTAITKDMFEEALRALADDDFLTVTGKTVRLL"
